The nature of the assay: qHTS Assay to Find Inhibitors of Chronic Active B-Cell Receptor Signaling. To be noted: ABC-DLBCL IkBa-CBG/CBR reporter, luminescence ratio (green luciferase fused to IkBa over red control in TMD8 lymphoma cells), 4 h. An outline of the steps: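 Concentration-response series (up to 46 uM) were applied to TMD8 dual-reporter cells for 4 h at 37C with doxycycline. Green/red ratio, after filter-overlap correction, defined %Activity; red signal alone was normalised to basal cells and zero luminescence.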

Where [1] appears, read: measured here: CBR red luminescence, cell number.
The mark [2] stands for this setting: measured here: IkBa-CBG green luminescence.

Molecules are shown by their SMILES. This is one part of the list. These are further read-outs of the screen, such as a control signal, another cell line or another target. No call is given for them. The list favours compounds with an active or inconclusive main result. Potencies come from curve fits of mixed quality, noted in brackets.

Usually AC50 stands for the concentration at which the activity in the assay is half-maximal.

Take `CCOC(=O)c1sc(NC(=O)CCN2C(=O)c3ccccc3C2=O)c(C(=O)OCC)c1C`: the AC50 under setting [1] is 16.4 µM [rising, partial curve, poor fit].
Same read-out and setting: under `O=C(O)c1cc2c(cc1NC(=O)c1ccccc1OC(F)F)OCCCO2` stands 35.5 µM [falling, single point]; under `COc1ccc(-c2csc(Nc3cccc(C)n3)n2)cc1`, 14.1 µM [falling, single point].
On the same count and under the same terms, next, `Cc1cccc(NC(=O)COc2ccc(Br)cc2)n1`: 23.1 µM [falling, partial curve, poor fit].
As to `Cc1cccc(-c2noc(CCCC(=O)N3CCOCC3)n2)c1`, the AC50 reads like this: under setting [1], 10.3 µM [rising, partial curve, poor fit]; under setting [2], 4.11 µM [rising, full curve, poor fit].
In the case of `CCOc1ccccc1N(CC(=O)Nc1ccccc1F)S(=O)(=O)c1ccccc1`, under setting [1], the AC50 was 35.5 µM [falling, single point].
Still for that read-out and setting: under `Cc1ccc(Oc2cc([N+](=O)[O-])cc3c2C(=O)Nc2ccccc2O3)cc1` stands 11.6 µM [rising, partial curve]; under `O=S(=O)(c1ccc(-c2nc3ccccc3s2)cc1)N1CCCC1`, 0.92 µM [rising, partial curve].
As for `Cc1cccc(C(=O)NNS(=O)(=O)c2ccc(F)cc2)c1`, the AC50 under setting [1] was 8.91 µM [falling, partial curve].
On the same count and under the same terms, under `Cc1ccc2nc(N/N=C\c3ccc([N+](=O)[O-])o3)nc(-c3ccccc3)c2c1` stands 0.184 µM [falling, full curve, poor fit].
Regarding `COc1cc(/C=N/n2cnnc2)ccc1OC(=O)c1cccnc1`, the AC50 under setting [1] is 0.82 µM [falling, full curve, poor fit].
The same measure, in the same setting: next, `CC(C)(CO)Cc1cc(C(C)(C)C)c(O)c(C(C)(C)C)c1`: 18.4 µM [rising, single point]; `CSc1ccccc1NC(=S)NC1CCCC1`: 7.08 µM [rising, full curve, poor fit]; `C=CCn1c(=O)c2c3c(sc2n2c(Nc4ccc(OC)cc4)nnc12)CCCC3`: 9.2 µM [falling, partial curve, poor fit].
The same measure, in the same setting: next, `CN(C)c1ccc(-c2nnc(-c3cccnc3)o2)cc1`: 12.6 µM [falling, partial curve, poor fit].
In the case of `O=C1CC(N2CCN(c3ccccc3)CC2)C(=O)N1c1ccc2c(c1)OCO2` (stereo not given), the AC50 under setting [1] is 11.2 µM [rising, partial curve, poor fit].
Still for that read-out and setting: under `Cc1nc(/C(N)=N/OC(=O)c2ccc(Cl)cc2)c(C(F)(F)F)o1` stands 12.6 µM [falling, partial curve, poor fit]; under `O=C(CSc1nc(=O)n2ccccc2n1)Nc1cccc2ccccc12`, 8.2 µM [falling, partial curve].
The same measure, in the same setting: under `COc1ccccc1CNCc1cc(=O)oc2c(C)c(C)ccc12` stands 10 µM [rising, partial curve, poor fit].
Consider `CCCn1c(=S)[nH]c2cc(C(=O)N(CCO)Cc3ccccc3)ccc2c1=O`, for which the AC50 under setting [1] is 3.16 µM [falling, full curve].
`O=C(N1CCOCC1)C1(c2ccccc2)CCCCC1`: the AC50 under setting [1] was 25.9 µM [rising, single point].
The same measure, in the same setting: next, `CC(C)Cc1nnc(NC(=O)c2cc(-c3ccncc3)nc3ccccc23)s1`: 0.0891 µM [rising, full curve, poor fit]; `C#CCN(C)CCCOc1ccc(Cl)cc1Cl`: 7.31 µM [rising, partial curve, poor fit]; `Cc1cc(C)n(-c2ccc(C(=O)OCC(=O)N(CC(C)C)C3CCS(=O)(=O)C3)cc2)n1` (stereo not given): 17.8 µM [falling, single point].
On the same count and under the same terms, next, `CCCC(=O)Nc1ccc(Cl)c(NC(=S)NC(=O)c2ccco2)c1`: 16.4 µM [falling, partial curve, poor fit].
With `C=CCn1c(-c2ccc(Cl)cc2)c[nH]c1=S`, the AC50 by setting is: under setting [1], 12.6 µM [falling, partial curve]; under setting [2], 25.1 µM [falling, single point].
For the compound `Cc1onc(-c2c(F)cccc2Cl)c1C(=O)Nc1cccc(S(=O)(=O)NC2=NCCC2)c1`, the AC50 under setting [1] was 6.51 µM [rising, partial curve, poor fit].
The same measure, in the same setting: under `CCOc1ccc2nc(SCC(=O)c3ccc(Cl)s3)sc2c1` stands 11.6 µM [falling, partial curve, poor fit].
For `Cn1c(=O)c2c(nc(Sc3ncccn3)n2Cc2ccc(Cl)cc2)n(C)c1=O`, the AC50 under setting [1] is 4.11 µM [falling, single point].
In the case of `Cc1cccc(-n2nnnc2SCC(=O)NC2CCCC2)c1`, under setting [1], the half-maximal activity concentration (AC50) is 4.61 µM [rising, full curve, poor fit].
Still for that read-out and setting: under `COc1cc(C(=O)Nc2ccc(NC(=O)C3CC3)nc2)cc(OC)c1OC` stands 5.01 µM [rising, partial curve, poor fit].
Still for that read-out and setting: next, `COCCN1CC(O)=C(c2nc3ccccc3c(=O)[nH]2)C1=N`: 5.8 µM [rising, partial curve, poor fit].
The same measure, in the same setting: under `CC(CC(=O)N1CCN(c2ccccc2F)CC1)c1ccccc1` (stereo not given) stands 23.1 µM [rising, single point]; under `Cc1cs/c(=N\N=C\c2cccc([N+](=O)[O-])c2)n1Cc1ccco1`, 1.64 µM [rising, partial curve, poor fit]; under `Cc1nnc(SCc2nc3sc(C(=O)O)c(C)c3c(=O)[nH]2)s1`, 17.8 µM [falling, partial curve].
With `CC(N=Cc1c(O)c2ccccc2oc1=O)C(=O)O` (stereo not given), the AC50 under setting [1] was 2.51 µM [falling, partial curve].
The same measure, in the same setting: under `CCOC(=O)c1[nH]c(C)c(C(=O)OC(C)C(=O)Nc2ncc(Cl)cc2Cl)c1C` (stereo not given) stands 1.12 µM [falling, partial curve].
Still for that read-out and setting: under `CCCOC(=O)c1c(NC(=O)CCC(=O)O)sc2c1CCCCC2` stands 6.31 µM [falling, partial curve, poor fit]; under `Cc1cc(-c2nn(-c3ccccc3F)cc2CNCCc2cnc[nH]2)c(C)s1`, 20 µM [rising, single point]; under `O=C(CN1C(=O)NC2(CCCCC2)C1=O)N1CCOCC1`, 9.2 µM [rising, partial curve, poor fit].
For the compound `COc1ccc2cc3c(N)c(C(=O)N4CCCC4)sc3nc2c1`, under setting [1], the concentration at half-maximal activity (AC50) was 1.84 µM [falling, partial curve, poor fit].
With `O=C(Nc1nc(-c2ccncc2)cs1)C1COc2ccccc2O1` (stereo not given), the AC50 under setting [1] is 3.26 µM [rising, partial curve, poor fit].
Still for that read-out and setting: next, `Cc1ccccc1NC(=O)NC1CCS(=O)(=O)C1` (stereo not given): 35.5 µM [rising, single point].
Same read-out and setting: next, `CNC(=S)N1N=C(c2ccccc2)CC1c1ccc(Br)cc1` (stereo not given): 6.31 µM [rising, full curve, poor fit]; `CCCCN(CC)CCCNC(=O)c1ccc2c(c1)N(Cc1ccc(C)cc1)C(=O)c1ccccc1S2`: 7.94 µM [falling, partial curve, poor fit].
The same measure, in the same setting: under `CCCCCCCN1C/C=C\C(c2ccc(OC)cc2)N(Cc2ccc(F)cc2)C(=O)[C@H]1Cc1ccccc1` (stereo not given in full) stands 3.55 µM [rising, full curve, poor fit].
On to `O=C(COC(=O)/C=C/c1ccccc1[N+](=O)[O-])Nc1ccc(OCc2ccccc2)cc1`, for which the AC50 under setting [1] was 2.06 µM [rising, full curve, poor fit].
Same read-out and setting: next, `COc1ccc(CCNC(=O)C2CCN(S(=O)(=O)N3CCC4(CC3)OCCO4)CC2)cc1OC`: 1.3 µM [rising, full curve, poor fit].
Consider `O=C(N/N=C/c1ccc[nH]1)c1ccc([N+](=O)[O-])cc1`, for which the AC50 under setting [1] was 5.17 µM [rising, single point].
On the same count and under the same terms, next, `CCc1ccc(N(CC(=O)Nc2nc3ccc(C)cc3s2)S(=O)(=O)c2c(C)noc2C)cc1`: 1.84 µM [falling, partial curve, poor fit]; `O=C1N/C(=C/c2cccs2)C(=O)N1Cc1ccc(F)cc1`: 35.5 µM [rising, partial curve, poor fit].
With `COc1cccc(NC(=O)COc2ccc(Br)c(C)c2)c1`, the AC50 under setting [1] is 12.6 µM [falling, partial curve, poor fit].
Same read-out and setting: under `CCc1nnc(NC(=O)CSc2nnc(-c3ccccc3O)n2CC)s1` stands 5.17 µM [rising, full curve, poor fit]; under `O=C(O)c1cc(O)ccc1N=Nc1ccccc1`, 7.94 µM [falling, partial curve, poor fit].
Consider `O=C(CCCN1C(=O)/C(=C\c2ccco2)SC1=S)Nc1ccc2ccccc2c1`, for which the AC50 under setting [1] was 9.2 µM [falling, partial curve, poor fit].
Turning to `N/C(Cc1cccs1)=N\OC(=O)COc1ccc(Br)cc1`, under setting [1], the AC50 is 23.1 µM [falling, single point].
On the same count and under the same terms, under `O=C(O)CC(NC(=O)C(c1ccccc1)c1ccccc1)c1ccco1` (stereo not given) stands 2.91 µM [falling, single point].
Consider `O=C(NCC1COc2ccccc2O1)c1ccc(NC(=O)C2CCCO2)cc1` (stereo not given), for which, under setting [1], the AC50 is 6.51 µM [falling, single point].
Take `Cc1ccc(C(=O)NNC(=O)c2ccncc2)cc1C`: the AC50 under setting [1] is 15.8 µM [falling, single point].
The same measure, in the same setting: under `COc1ccc(-c2nnn(CC(=O)N(Cc3ccco3)C(C(=O)NCC3CCCO3)c3ccco3)n2)cc1` (stereo not given) stands 23.1 µM [rising, single point].
With `O=C(Nc1ccc(N2CCN(C(=O)c3ccc(Cl)cc3)CC2)cc1)c1ccc([N+](=O)[O-])o1`, the AC50 by setting is: under setting [1], 3.16 µM [falling, partial curve, poor fit]; under setting [2], 2.82 µM [falling, partial curve, poor fit].
`COc1nc(N2CCOCC2)nc(C)c1[N+](=O)[O-]`: the AC50 under setting [1] is 23.1 µM [rising, single point].

For the origin of these results see PubChem BioAssay AID493014 (National Center for Advancing Translational Sciences (NCATS), 2011).
